Paper PMC7405385
Construct, isoform or probe ends are uncertain for at least one entry. Where cells or extracts were used, other partners may take part. For part of these data: Weaker means in comparison with the reference protein, sequence or condition of that experiment.

What was measured:
STAT2 WT + STAT1 + IRF9 = assay: EMSA (supershift with STAT1, STAT2, IRF9 antibodies); details: IFN-beta 1 h; Gelshift Chemiluminescent EMSA kit (Active Motif) per instructions; nuclear extracts; 500-fold molar excess unlabeled probe for competition; protein in an extract; label: 3' biotin
[1] = system: STAT2 T404E + STAT1 + IRF9; assay: EMSA; details: IFN-beta 1 h, greatly enhanced vs WT; Gelshift Chemiluminescent EMSA kit (Active Motif) per instructions; nuclear extracts; 500-fold molar excess unlabeled probe for competition; protein in an extract; label: 3' biotin
[2] = system: STAT2 T404A + STAT1 + IRF9; assay: EMSA; details: IFN-beta 1 h, severely inhibited vs WT; Gelshift Chemiluminescent EMSA kit (Active Motif) per instructions; nuclear extracts; 500-fold molar excess unlabeled probe for competition; protein in an extract; label: 3' biotin

GGGAAAGGGAAACCGAAACTGA (double strand) [ISRE (ISG15) probe]
binding result (STAT2 WT + STAT1 + IRF9): binds
binding result [1]: binds
binding result [2]: binds more weakly
